We go through two substances from article PMC7955138.

By UniProt entry, the sequences of proteins in these tests, tags left out. Residues count along the entry.
UniProt Q6DN90: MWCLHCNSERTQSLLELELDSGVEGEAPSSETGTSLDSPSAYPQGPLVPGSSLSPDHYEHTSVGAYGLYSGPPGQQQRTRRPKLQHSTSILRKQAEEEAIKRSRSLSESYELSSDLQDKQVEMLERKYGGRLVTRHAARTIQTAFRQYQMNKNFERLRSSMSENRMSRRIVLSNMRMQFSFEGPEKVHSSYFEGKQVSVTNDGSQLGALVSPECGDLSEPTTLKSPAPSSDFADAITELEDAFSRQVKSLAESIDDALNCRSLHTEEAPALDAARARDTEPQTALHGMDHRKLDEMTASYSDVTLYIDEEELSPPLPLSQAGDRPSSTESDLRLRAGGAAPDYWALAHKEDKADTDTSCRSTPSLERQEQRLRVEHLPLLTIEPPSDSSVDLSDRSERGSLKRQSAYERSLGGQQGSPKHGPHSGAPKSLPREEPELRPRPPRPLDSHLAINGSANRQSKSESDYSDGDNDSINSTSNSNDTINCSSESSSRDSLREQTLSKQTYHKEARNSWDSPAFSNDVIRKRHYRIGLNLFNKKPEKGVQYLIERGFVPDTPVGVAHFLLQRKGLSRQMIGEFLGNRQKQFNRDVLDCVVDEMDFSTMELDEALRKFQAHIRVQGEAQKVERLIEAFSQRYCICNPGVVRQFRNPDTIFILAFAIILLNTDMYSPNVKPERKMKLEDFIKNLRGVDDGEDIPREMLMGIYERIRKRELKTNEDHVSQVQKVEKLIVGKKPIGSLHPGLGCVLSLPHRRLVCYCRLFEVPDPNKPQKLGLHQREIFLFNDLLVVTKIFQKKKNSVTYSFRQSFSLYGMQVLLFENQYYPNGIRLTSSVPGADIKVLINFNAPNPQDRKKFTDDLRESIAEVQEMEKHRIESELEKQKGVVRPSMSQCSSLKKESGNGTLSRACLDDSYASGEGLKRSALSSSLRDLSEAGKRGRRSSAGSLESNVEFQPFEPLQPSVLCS
UniProt P08581, residues 25-1390: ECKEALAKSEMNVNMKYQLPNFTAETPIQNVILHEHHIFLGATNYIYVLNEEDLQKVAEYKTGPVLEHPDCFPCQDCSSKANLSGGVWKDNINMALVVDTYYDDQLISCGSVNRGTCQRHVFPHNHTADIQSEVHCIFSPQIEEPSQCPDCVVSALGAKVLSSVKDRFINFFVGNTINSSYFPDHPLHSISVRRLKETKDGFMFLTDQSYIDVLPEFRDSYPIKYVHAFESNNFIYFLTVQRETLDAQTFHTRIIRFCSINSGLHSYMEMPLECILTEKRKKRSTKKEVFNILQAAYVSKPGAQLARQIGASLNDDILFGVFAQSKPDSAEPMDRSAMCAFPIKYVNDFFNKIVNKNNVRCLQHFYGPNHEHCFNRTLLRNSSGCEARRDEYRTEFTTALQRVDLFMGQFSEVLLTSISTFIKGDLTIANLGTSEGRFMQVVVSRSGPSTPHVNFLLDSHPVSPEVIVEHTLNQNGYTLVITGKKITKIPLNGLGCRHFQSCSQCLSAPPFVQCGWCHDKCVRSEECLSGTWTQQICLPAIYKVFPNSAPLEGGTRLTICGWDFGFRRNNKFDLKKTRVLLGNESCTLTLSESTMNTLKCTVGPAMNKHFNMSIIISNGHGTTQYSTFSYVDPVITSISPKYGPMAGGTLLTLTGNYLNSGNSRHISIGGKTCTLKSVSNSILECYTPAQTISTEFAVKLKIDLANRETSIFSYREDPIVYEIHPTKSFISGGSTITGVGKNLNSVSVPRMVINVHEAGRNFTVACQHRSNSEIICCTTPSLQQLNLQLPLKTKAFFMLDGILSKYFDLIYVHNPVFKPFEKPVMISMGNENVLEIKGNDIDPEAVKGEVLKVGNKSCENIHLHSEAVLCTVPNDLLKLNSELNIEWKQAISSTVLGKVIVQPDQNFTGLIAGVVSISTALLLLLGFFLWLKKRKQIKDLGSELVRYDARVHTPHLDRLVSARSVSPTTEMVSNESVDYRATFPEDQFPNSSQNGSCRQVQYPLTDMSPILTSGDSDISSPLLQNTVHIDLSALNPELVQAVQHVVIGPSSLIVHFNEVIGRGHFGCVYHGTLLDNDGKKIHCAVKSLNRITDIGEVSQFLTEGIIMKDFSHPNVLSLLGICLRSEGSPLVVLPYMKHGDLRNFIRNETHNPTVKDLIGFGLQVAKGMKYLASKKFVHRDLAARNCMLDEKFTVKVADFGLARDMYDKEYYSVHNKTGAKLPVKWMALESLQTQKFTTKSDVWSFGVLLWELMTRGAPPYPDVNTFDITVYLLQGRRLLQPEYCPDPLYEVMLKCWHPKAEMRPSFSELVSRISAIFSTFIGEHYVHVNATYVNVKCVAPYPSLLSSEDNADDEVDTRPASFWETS

Results are given in words; binding and its absence hold for the method and conditions named. In cells and extracts the contact can be indirect. Some results given as binding are weak or reduced against the parent protein; the word gives no strength.

One test deals with GFP-IQSEC1 v2 (human) (UniProt Q6DN90). The experiment in a line: co-IP; GFP-Trap Kit (Chromotek) on lysates of cells expressing GFP, GFP-IQSEC1 v2 or v4; western blot with anti-Met and anti-LRP1. On the technique in general: In western blotting, separated proteins are transferred to a membrane and probed.
Test [1] addresses Met (human (endogenous in PC3)) (UniProt P08581). The experiment in a line: co-IP; 1 mg cell lysate immunoprecipitated with anti-Met antibody overnight at 4 C, anti-mouse agarose, immunoblot; compared at different IQSEC1 expression levels.

On to “Low density lipoprotein receptor-Related Protein 1 (from UniProt Q07954 20-4544)”, for which the binding entry (in the test with GFP-IQSEC1 v2 (human); in test [1]) was “binds” each time.

Turning to “Met (from UniProt P08581 25-1390) (receptor)”, the binding entry with GFP-IQSEC1 v2 (human) is given as “binds”.
